In paper PMC11429822:
These are yes or no findings as the source states them, for the method shown. Binding seen in cells or lysates may run through a third protein.

The chains behind the UniProt entries cited, without tags or fusion partners.
UniProt Q04206: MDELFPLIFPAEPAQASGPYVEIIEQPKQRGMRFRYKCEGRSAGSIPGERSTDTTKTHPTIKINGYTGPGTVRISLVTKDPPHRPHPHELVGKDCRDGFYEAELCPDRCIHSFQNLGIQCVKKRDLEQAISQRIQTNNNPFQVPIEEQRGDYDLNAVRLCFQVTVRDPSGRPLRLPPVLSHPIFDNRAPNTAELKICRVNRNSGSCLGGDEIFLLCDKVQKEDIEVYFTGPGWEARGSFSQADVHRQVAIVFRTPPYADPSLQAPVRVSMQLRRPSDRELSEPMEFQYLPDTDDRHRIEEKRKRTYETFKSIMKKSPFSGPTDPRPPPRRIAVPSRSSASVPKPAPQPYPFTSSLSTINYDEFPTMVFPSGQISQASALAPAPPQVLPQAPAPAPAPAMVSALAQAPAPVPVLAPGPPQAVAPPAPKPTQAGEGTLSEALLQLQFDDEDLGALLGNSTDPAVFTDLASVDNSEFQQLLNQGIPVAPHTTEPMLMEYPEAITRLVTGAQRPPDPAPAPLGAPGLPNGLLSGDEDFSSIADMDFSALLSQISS

T1: NF-κB p52 (human (endogenous in SNU719)), Q00653
T1 chain: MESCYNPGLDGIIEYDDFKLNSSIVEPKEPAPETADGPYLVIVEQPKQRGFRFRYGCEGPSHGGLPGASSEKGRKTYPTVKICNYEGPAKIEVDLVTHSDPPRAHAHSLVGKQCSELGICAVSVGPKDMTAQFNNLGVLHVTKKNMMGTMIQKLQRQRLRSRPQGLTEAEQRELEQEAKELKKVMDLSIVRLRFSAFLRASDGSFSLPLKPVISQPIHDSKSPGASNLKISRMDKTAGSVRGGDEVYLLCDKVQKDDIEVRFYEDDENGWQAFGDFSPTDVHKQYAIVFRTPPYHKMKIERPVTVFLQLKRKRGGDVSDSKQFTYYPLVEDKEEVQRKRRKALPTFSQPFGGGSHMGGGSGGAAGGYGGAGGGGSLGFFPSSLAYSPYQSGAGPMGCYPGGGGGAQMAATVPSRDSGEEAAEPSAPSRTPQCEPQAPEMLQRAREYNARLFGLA

B1: androgen receptor, P10275 1-920 (protein)
chain: MEVQLGLGRVYPRPPSKTYRGAFQNLFQSVREVIQNPGPRHPEAASAAPPGASLLLLQQQQQQQQQQQQQQQQQQQQQQQETSPRQQQQQQGEDGSPQAHRRGPTGYLVLDEEQQPSQPQSALECHPERGCVPEPGAAVAASKGLPQQLPAPPDEDDSAAPSTLSLLGPTFPGLSSCSADLKDILSEASTMQLLQQQQQEAVSEGSSSGRAREASGAPTSSKDNYLGGTSTISDNAKELCKAVSVSMGLGVEALEHLSPGEQLRGDCMYAPLLGVPPAVRPTPCAPLAECKGSLLDDSAGKSTEDTAEYSPFKGGYTKGLEGESLGCSGSAAAGSSGTLELPSTLSLYKSGALDEAAAYQSRDYYNFPLALAGPPPPPPPPHPHARIKLENPLDYGSAWAAAAAQCRYGDLASLHGAGAAGPGSGSPSAAASSSWHTLFTAEEGQLYGPCGGGGGGGGGGGGGGGGGGGGGGGEAGAVAPYGYTRPPQGLAGQESDFTAPDVWYPGGMVSRVPYPSPTCVKSEMGPWMDSYSGPYGDMRLETARDHVLPIDYYFPPQKTCLICGDEASGCHYGALTCGSCKVFFKRAAEGKQKYLCASRNDCTIDKFRRKNCPSCRLRKCYEAGMTLGARKLKKLGNLKLQEEGEASSTTSPTEETTQKLTVSHIEGYECQPIFLNVLEAIEPGVVCAGHDNNQPDSFAALLSSLNELGERQLVHVVKWAKALPGFRNLHVDDQMAVIQYSWMGLMVFAMGWRSFTNVNSRMLYFAPDLVFNEYRMHKSRMYSQCVRMRHLSQEFGWLQITPQEFLCMKALLLFSIIPVDGLKNQKFFDELRMNYIKELDRIIACKRKNPTSCSRRFYQLTKLLDSVQPIARELHQFTFDLLIKSHMVSVDFPEMMAEIISVQVPKILSGKVKPIYFHTQ

What was measured:
[1] = biological target: NF-κB p65 (human (endogenous in SNU719)) (UniProt Q04206); test: co-IP; SNU719 cells treated with 100 nM DHT for 48 h, lysed in RIPA lysis buffer; IP with anti-p65 Ab or anti-NF-κB2 p100/52 Ab at 4 °C overnight, Dynabeads Protein G, washed thrice with lysis buffer; Western blot with anti-AR Ab; rabbit IgG as negative control
[2] = biological target: T1, NF-κB p52 (human (endogenous in …)); test: as above; conditions: remark: other sources report otherwise

Molecule | binding [1] | binding [2]
androgen receptor (from UniProt P10275 1-920) | no binding | –
B1 | – | no binding
